Consider 1 substance from article PMC7566457.

Amino acid sequences for entries named in this document (tags omitted). A change or cut given only in a name is not applied to a line headed by its entry.
UniProt A0A7U3QAH2: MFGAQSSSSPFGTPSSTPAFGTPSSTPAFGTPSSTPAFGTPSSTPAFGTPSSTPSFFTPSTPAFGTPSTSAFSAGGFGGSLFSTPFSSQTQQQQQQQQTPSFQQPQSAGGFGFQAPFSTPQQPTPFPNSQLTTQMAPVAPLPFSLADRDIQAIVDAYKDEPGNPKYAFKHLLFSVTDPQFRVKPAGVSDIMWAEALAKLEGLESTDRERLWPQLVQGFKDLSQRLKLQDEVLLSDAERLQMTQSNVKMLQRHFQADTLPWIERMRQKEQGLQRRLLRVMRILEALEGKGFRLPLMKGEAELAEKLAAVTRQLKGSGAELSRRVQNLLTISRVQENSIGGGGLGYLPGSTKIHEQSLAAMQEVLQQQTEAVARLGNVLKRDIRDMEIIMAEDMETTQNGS

These are yes or no findings as the source states them, for the method shown. A result given as binding can be weak or reduced; the word gives no strength.

This experiment addresses MdNup62^508–613 (truncated MdNup62 in pGBKT7) (Malus domestica (apple)). The experiment can be described thus: two-hybrid; bait in pGBKT7 and prey in pGADT7 co-transformed into Gold Yeast Two-Hybrid cells; growth and blue colour on SD/-Trp/-Leu/-His/-Ade/+X-α-gal medium.

For “MdNup54 (open reading frame in pGADT7) (from UniProt A0A7U3QAH2)”, the binding result is given as “binds”.
